Laboratory results reported in article PMC9402538, “Rational design of a sensitivity-enhanced tracer for discovering efficient APC–Asef inhibitors” (Nature Communications, 2022).
The structures given here were assigned with low confidence; some may be wrong.

Sequences of proteins named here, by UniProt entry; tags and fusion partners are left off. Residues count along the entry.
UniProt P25054, 303-739 limits assumed: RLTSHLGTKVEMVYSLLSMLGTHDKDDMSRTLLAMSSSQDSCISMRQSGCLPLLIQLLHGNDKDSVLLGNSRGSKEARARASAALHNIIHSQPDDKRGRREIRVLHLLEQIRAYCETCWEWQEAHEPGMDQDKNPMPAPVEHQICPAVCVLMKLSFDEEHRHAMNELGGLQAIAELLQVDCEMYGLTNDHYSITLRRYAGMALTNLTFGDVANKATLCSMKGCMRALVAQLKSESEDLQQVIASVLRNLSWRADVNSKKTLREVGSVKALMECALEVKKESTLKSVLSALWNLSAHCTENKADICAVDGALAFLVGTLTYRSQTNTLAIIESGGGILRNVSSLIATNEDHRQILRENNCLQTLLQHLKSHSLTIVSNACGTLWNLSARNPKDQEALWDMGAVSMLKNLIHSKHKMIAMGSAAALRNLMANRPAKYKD

Target: APC (303–739) (Homo sapiens, UniProt P25054)
Assay: FP competitive assay using tracer 7
Assay type: binding
Conditions: log-transformed IC50, Fig. 2d
Experimental: FITC-labeled tracer peptides were obtained from Changzhou Kanglong Biotech Ltd. (Changzhou, Jiangsu, China). […]. The FP signal changes upon tracer binding were measured after 1.5 h of incubation using a Synergy neo microplate reader (BioTek Instruments, Inc.) and plotted against the protein concentration. The corresponding EC50 values were generated by fitting the curves with a nonlinear regression model. […]. To make a working solution, APC (303–739) was diluted in FP buffer (50 mM HEPES, pH 7.5, 300 mM NaCl, 1 mM EDTA, 1 mM DTT). The diluted APC protein (91 μL) was combined with a serial dilution of peptides (4 μL) and incubated at room temperature for 1 h, followed by the addition of 5 μL of 400 nM tracer 7. The FP signals were measured after 1.5 h of incubation at room temperature using a Synergy neo microplate reader. Three controls were included on each plate, i.e., blank (without protein and tracer), 100% inhibition (free tracer only), and 0% inhibition (protein/tracer complex only) controls. All experiments were performed in triplicate. The IC50 values of peptides were calculated by nonlinear regression analysis using GraphPad Prism 7.0 software.

Compound	Log IC50, Tracer7 [μM]
CC(C)C[C@H](NC(=O)[C@H](CO)NC(=O)[C@H](CCC(=O)O)NC(=O)CNC(=O)[C@H](C)NC(=O)c1ccco1)C(=O)N[C@@H](Cc1ccc(O)cc1)C(=O)NC(c1ccccc1)c1ccccc1	0.238
CC(C)C[C@H](NC(=O)[C@H](CO)NC(=O)[C@H](CCC(=O)O)NC(=O)CNC(=O)[C@H](C)NC(=O)c1ccco1)C(=O)N[C@@H](Cc1ccc(O)cc1)C(=O)NC1(c2ccccc2)CC1	0.312
CC(C)C[C@H](NC(=O)[C@H](CO)NC(=O)[C@H](CCC(=O)O)NC(=O)CNC(=O)[C@H](C)NC(=O)c1ccco1)C(=O)N[C@@H](Cc1ccc(O)cc1)C(=O)NC(c1ccccc1)c1ccccn1 (stereo partly shown)	0.149
CC(C)C[C@H](NC(=O)[C@H](CO)NC(=O)[C@H](CCC(=O)O)NC(=O)CNC(=O)[C@H](C)NC(=O)c1ccccc1)C(=O)N[C@@H](Cc1ccc(O)cc1)C(N)=O	0.127

Continued, values first:

Log IC50, Tracer7 [μM]	Compound
0.255	CC(C)C[C@H](NC(=O)[C@H](CO)NC(=O)[C@H](CCC(=O)O)NC(=O)CNC(=O)[C@H](CS)NC(=O)c1ccccc1)C(=O)N[C@@H](Cc1ccc(O)cc1)C(=O)N[C@@H](CCC(=O)O)C(N)=O
0.088	CC(C)CC[C@H](NC(=O)[C@H](CO)NC(=O)[C@H](CCC(=O)O)NC(=O)CNC(=O)[C@H](C)NC(=O)OCc1ccccc1)C(=O)N[C@@H](Cc1ccc(O)cc1)C(=O)N[C@@H](CCC(=O)O)C(N)=O
0.197	CC(C)C[C@H](NC(=O)[C@H](CO)NC(=O)[C@H](CCC(=O)O)NC(=O)CNC(=O)[C@H](C)NC(=O)C12CC3CC(CC(C3)C1)C2)C(=O)N[C@@H](Cc1ccc(O)cc1)C(=O)N[C@@H](CCC(=O)O)C(N)=O
